From the supplement of paper PMC10849652
The other results are listed elsewhere or left out. Residues, ends and D or L forms follow the SMILES beside them. *: point of attachment. Cbz = O=C(OCc1ccccc1)*

Protein sequences, listed by entry. Tags and fused reporters are not part of them. Lines headed by an entry give the natural chain unless they say otherwise; changes in a name come on top.
UniProt Q9NUJ3: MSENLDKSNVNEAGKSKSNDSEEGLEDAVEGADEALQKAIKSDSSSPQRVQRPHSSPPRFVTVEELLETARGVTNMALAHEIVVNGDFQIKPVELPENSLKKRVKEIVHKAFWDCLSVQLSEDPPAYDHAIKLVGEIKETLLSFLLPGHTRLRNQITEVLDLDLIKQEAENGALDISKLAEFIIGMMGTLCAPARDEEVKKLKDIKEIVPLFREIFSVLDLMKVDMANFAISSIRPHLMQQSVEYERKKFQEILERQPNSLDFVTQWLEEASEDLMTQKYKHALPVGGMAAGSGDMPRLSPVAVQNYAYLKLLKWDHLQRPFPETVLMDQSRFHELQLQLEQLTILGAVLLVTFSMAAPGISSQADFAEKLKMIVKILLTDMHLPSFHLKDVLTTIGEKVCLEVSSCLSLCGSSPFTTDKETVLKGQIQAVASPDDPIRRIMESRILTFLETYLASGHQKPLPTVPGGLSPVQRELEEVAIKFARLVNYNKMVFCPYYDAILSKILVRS
UniProt Q5JUR7: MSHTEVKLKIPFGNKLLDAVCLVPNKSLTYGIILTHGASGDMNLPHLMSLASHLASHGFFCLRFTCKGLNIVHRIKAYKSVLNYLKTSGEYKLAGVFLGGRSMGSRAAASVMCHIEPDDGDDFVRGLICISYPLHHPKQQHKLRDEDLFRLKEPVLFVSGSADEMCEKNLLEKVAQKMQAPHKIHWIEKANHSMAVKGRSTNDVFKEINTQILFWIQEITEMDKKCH
UniProt Q969Z0: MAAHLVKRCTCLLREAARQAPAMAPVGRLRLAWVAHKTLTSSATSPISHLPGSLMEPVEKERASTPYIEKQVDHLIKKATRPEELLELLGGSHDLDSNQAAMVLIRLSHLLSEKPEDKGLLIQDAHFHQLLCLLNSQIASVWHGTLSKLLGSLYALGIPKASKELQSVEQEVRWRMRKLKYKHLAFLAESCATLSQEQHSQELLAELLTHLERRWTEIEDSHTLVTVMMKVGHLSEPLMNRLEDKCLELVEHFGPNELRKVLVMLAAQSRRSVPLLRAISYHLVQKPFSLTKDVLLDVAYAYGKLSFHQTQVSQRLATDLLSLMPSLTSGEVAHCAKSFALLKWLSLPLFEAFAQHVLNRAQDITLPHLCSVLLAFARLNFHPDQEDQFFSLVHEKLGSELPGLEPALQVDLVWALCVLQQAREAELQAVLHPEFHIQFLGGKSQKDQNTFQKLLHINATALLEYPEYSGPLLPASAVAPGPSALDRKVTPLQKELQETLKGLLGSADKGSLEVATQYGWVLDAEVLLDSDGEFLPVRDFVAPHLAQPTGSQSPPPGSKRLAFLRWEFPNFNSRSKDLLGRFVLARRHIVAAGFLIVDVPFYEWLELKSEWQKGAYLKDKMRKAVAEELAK
UniProt P10646, whole entry, looked up: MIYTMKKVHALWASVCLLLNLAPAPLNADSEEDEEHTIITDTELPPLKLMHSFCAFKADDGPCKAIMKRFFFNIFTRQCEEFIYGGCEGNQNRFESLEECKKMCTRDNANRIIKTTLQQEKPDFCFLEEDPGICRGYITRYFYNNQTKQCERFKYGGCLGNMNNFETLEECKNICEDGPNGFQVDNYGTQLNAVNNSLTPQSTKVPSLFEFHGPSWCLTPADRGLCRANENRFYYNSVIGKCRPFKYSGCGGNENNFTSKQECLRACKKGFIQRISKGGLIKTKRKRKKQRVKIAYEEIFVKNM
UniProt P04183: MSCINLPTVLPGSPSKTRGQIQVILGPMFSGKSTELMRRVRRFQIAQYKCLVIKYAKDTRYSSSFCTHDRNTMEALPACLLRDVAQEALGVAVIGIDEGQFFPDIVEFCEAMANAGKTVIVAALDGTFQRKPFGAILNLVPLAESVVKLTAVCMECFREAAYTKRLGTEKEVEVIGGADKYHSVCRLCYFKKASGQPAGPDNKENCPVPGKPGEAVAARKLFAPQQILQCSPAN
UniProt Q9Y5J6: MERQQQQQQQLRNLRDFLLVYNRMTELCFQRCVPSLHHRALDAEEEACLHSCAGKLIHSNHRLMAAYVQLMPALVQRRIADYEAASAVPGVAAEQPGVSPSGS
UniProt Q9BVW5: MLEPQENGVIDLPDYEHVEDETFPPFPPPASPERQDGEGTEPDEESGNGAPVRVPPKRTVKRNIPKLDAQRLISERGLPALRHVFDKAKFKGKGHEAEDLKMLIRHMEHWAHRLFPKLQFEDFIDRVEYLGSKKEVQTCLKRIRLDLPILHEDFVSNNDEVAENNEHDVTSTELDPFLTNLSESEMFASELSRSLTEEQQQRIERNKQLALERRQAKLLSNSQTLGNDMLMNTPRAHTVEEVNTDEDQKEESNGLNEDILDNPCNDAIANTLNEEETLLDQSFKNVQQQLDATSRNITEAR
UniProt P19532: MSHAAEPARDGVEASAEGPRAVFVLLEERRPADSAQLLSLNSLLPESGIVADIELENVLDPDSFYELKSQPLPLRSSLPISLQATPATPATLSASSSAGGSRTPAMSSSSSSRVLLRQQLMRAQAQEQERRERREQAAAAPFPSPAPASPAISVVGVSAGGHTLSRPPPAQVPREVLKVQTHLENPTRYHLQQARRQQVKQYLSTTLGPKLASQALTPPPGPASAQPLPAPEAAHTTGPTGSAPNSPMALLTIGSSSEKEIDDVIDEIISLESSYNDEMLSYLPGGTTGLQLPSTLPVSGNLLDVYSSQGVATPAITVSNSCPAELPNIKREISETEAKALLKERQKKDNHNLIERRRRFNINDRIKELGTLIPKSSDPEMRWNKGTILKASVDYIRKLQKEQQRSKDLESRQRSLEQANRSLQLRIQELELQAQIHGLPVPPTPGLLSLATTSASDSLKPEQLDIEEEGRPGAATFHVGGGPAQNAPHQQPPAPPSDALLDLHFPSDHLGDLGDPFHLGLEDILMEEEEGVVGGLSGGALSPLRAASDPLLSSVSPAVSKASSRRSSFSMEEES
UniProt Q9HA65: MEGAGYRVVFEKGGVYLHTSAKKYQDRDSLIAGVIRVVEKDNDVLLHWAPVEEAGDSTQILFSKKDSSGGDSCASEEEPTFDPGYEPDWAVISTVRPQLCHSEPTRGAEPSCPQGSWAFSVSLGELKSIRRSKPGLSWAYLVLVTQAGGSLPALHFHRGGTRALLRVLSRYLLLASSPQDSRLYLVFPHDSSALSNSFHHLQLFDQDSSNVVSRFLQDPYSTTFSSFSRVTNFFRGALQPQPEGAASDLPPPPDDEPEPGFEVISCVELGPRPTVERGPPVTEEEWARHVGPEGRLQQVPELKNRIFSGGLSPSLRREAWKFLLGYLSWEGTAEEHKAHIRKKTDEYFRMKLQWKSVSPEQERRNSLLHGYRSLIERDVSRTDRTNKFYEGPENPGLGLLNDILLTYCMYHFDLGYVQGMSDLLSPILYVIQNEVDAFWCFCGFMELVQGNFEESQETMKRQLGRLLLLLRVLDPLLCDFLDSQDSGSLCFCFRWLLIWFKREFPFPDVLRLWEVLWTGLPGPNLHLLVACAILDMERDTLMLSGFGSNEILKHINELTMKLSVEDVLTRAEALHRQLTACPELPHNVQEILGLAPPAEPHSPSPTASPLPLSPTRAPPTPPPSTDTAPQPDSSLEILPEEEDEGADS
UniProt P62072: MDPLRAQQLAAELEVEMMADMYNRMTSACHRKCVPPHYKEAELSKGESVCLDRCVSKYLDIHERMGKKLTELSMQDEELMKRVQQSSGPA
UniProt Q9BSF4: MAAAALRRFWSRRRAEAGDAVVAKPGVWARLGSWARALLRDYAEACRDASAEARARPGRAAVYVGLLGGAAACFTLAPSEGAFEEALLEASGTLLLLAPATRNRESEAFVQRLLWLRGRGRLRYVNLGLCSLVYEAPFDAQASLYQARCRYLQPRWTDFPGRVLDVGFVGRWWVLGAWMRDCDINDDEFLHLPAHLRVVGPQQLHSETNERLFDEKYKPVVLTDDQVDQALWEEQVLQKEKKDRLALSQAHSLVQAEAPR
UniProt Q8TEA7: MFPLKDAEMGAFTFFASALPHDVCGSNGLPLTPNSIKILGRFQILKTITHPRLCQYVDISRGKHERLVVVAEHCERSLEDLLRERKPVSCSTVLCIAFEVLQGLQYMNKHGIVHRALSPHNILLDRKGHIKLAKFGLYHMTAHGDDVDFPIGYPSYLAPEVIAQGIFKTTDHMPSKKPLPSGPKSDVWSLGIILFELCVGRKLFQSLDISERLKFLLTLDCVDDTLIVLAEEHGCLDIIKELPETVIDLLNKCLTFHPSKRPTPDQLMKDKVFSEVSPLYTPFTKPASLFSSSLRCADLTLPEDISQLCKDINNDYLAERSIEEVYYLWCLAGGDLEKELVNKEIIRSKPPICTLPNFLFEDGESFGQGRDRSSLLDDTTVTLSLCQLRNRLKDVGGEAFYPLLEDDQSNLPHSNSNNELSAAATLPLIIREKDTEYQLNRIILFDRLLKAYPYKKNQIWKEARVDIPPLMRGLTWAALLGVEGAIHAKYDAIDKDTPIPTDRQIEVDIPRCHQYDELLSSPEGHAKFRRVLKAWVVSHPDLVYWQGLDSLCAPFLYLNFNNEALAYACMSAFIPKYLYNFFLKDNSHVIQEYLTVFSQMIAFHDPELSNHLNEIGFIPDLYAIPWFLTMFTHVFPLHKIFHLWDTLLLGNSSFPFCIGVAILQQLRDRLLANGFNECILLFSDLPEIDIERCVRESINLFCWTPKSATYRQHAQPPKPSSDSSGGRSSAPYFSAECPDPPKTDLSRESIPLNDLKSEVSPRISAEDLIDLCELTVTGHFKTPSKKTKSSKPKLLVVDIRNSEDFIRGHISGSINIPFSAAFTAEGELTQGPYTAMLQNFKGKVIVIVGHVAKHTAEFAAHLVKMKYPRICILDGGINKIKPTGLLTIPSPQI
UniProt Q9Y6I9: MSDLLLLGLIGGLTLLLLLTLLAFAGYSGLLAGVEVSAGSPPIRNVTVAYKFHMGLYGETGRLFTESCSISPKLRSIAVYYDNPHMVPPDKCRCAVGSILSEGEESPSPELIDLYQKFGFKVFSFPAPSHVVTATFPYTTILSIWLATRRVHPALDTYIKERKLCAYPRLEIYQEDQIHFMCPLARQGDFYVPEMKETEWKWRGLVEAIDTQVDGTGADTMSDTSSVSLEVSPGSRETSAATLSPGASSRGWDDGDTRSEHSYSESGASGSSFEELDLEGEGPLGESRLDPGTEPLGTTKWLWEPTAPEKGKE
UniProt Q13428: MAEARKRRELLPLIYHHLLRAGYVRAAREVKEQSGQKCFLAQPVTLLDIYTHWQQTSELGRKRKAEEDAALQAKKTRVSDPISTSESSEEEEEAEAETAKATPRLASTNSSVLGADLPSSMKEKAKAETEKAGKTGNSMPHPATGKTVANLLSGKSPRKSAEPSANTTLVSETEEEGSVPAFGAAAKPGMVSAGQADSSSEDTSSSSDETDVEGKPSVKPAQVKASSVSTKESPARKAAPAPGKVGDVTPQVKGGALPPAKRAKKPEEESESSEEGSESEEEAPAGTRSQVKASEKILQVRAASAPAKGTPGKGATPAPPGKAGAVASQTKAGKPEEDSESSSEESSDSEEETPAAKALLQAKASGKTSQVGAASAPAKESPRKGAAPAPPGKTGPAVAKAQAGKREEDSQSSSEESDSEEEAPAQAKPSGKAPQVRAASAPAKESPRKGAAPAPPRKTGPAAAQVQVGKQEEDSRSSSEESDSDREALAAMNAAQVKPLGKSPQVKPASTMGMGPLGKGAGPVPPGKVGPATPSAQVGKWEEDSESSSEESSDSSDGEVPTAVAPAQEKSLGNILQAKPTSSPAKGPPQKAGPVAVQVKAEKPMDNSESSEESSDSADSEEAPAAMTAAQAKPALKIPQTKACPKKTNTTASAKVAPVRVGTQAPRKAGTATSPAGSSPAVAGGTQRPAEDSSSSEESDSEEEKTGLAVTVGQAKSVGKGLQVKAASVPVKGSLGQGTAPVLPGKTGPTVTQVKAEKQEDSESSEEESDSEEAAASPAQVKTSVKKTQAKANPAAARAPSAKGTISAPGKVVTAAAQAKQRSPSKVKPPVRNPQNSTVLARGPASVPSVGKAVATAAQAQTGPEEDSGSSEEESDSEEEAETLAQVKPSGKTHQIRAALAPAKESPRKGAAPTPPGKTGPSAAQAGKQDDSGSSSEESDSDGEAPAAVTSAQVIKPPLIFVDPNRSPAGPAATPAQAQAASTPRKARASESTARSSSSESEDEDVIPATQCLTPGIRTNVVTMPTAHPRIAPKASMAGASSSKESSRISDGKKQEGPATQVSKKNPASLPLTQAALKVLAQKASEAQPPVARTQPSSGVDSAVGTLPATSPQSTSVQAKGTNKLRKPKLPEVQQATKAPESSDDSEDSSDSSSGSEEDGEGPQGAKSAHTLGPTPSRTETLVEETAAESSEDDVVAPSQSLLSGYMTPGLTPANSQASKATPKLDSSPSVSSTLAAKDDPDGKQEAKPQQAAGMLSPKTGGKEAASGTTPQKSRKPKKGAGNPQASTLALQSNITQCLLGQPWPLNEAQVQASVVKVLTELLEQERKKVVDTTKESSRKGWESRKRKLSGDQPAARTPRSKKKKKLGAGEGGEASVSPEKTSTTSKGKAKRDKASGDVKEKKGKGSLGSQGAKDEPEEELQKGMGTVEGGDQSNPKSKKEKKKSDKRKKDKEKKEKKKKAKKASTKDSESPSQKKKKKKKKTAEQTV

Key:
Experiment in all cases: log2 fold change, soluble protein after heating vs DMSO (PISA); higher = thermal stabilisation; K562 cells, 10 uM, 30 min; active = over 0.2 and 3.5 SD of the protein, either way, in both replicates (recomputed)
[1] = compound: C#Cc1cccc(Nc2ncnc3cc(OCCOC)c(OCCOC)cc23)c1 [erlotinib]
Procedure, shortened: (§1)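 Aliquots of K562 cells (2×10^6 cells/mL) treated with 10 μM compound for 30 min were heated for 3 min over 48°C-58°C. After pooling and extraction in PBS with 0.5% NP-40 at 4°C, soluble protein from a 21,000xg, 90 min spin was quantified by TMTpro 16plex LC-MS/MS with channel sums equalised. Thermal stability is expressed against control samples, from duplicates, as a log2 fold change.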

[2] = compound: C/C(=N\NC(=O)C1=CC(=CC=C1)S(=O)(=O)N2CCOCC2)/C3=C(C=CC(=C3)Cl)O
Procedure, shortened: as §1

[3] = compound: C1=CC(=CC=C1C2=NC3=C(N2)C=C(C=C3)C(=O)N)OC4=CC=C(C=C4)Cl
Procedure, shortened: as §1

[4] = compound: C1=CC2=C(C=CC(=C2)/C=C\3/C(=O)NC(=NCC4=CC=CS4)S3)N=C1
Procedure, shortened: as §1

[5] = compound: C1=CC=C2C(=C1)C3=NNC4=CC=CC(=C43)C2=O
Procedure, shortened: as §1

[6] = compound: CC(=O)c1cnc2ccc(-c3cc(Cl)c(O)c(Cl)c3)nc2c1N[C@H]1CC[C@H](CN(C)C)CC1
Procedure, shortened: as §1

[7] = compound: CC(C)C1=C2N=C(C=C(N2N=C1)NCC3=CC=CC=C3)NCCCCCCN
Procedure, shortened: as §1

[8] = compound: CC1=C(C(CC(=O)N1)C2=CC=C(C=C2)C(F)(F)F)C(=O)NC3=C(C=C4C(=C3)C=NN4)F
Procedure, shortened: as §1

[9] = compound: C1=CC(=C(C=C1Cl)C2=NC3=NC=CN=C3C(=N2)NC4=CC=NC=C4)F
Procedure, shortened: as §1

[10] = compound: C1=CC2=NC=CN=C2C=C1/C=C/3\C(=O)NC(=O)S3
Procedure, shortened: as §1

[11] = compound: C1=CC=C(C=C1)C2=NC(=C(N2)C3=CC=NC=C3)C4=CC(=C(C=C4)Cl)O
Procedure, shortened: as §1

[12] = compound: C1CCN(C1)C(=O)NC2=CC=CC(=C2)NC3=NC=C(C(=N3)NCCC4=CN=CN4)Br
Procedure, shortened: as §1

[13] = compound: C1CN(CCC1(CC2=CC=C(C=C2)Cl)N)C3=NC=NC4=C3C=CN4
Procedure, shortened: as §1

[14] = compound: C1COCCN1CCN2C3=CC=CC=C3N=C2NC(=O)C4=CC(=CC=C4)[N+](=O)[O-] [IRAK-1-4 Inhibitor I]
Procedure, shortened: as §1

[15] = compound: C=CC(=O)N1CCC[C@@H](n2nc(-c3ccc(Oc4ccccc4)cc3)c3c(N)ncnc32)C1 [ibrutinib]
Procedure, shortened: as §1

[16] = compound: CC(C)(C)Cn1c(N)nc2ccc(-c3[nH]c(C(C)(C)C)nc3-c3ccc(F)cc3)nc21 [ralimetinib]
Procedure, shortened: as §1

[17] = compound: CC(C)(O)CC(=O)NCCn1ccc2ncnc(Nc3ccc(Oc4cccc(C(F)(F)F)c4)c(Cl)c3)c21
Procedure, shortened: as §1

[18] = compound: CC(C)C[C@@H](C=O)NC(=O)[C@H](CC(C)C)NC(=O)[C@H](CC(C)C)NC(=O)OCc1ccccc1
Procedure, shortened: as §1

[19] = compound: CC(C)N(C[C@H]1O[C@@H](n2cnc3c(N)ncnc32)[C@H](O)[C@@H]1O)[C@H]1C[C@@H](CCc2nc3cc(C(C)(C)C)ccc3[nH]2)C1 [pinometostat]
Procedure, shortened: as §1

[20] = compound: CC1=C(C2=C(C=C1)C(=O)C3=CC=CC=C3N2CCCN)C
Procedure, shortened: as §1

Measured: log2 fold change

TCP11L1 (UniProt Q9NUJ3)
inactive: [1] -0.144 | [2] 0.306 | [3] -0.122 | [4] -0.056 | [5] 0.151 | [6] 0.095 | [7] -0.212 | [8] 0.146

TEX30 (UniProt Q5JUR7)
inactive: [1] 0.183 | [2] 0.165 | [9] -0.011 | [3] -0.013 | [4] 0.188 | [10] 0.025 | [11] -0.01 | [5] 0.046 | [12] -0.147 | [13] -0.029 | [14] -0.013 | [15] 0.08 | [6] -0.048 | [16] 0.053 | [17] -0.251 | [7] -0.075 | [18] 0.03 | [19] 0.105 | [20] 0.028

TBRG4 (UniProt Q969Z0)
inactive: [1] 0.072 | [2] 0.18 | [9] 0.046 | [3] -0.154 | [4] 0.063 | [10] -0.056 | [11] 0.056 | [5] -0.201 | [12] -0.07 | [13] -0.036 | [14] -0.031 | [15] 0 | [6] -0.188 | [16] -0.134 | [7] -0.624 | [18] -0.038 | [19] -0.014 | [20] -0.171
active: [17] -0.578

TFPI (UniProt P10646)
inactive: [1] 0.275 | [9] 0.064 | [3] 0.01 | [10] -0.054 | [11] -0.043 | [12] 0.078 | [13] 0.058 | [14] -0.13 | [15] 0.084 | [16] -0.112 | [17] 0.094 | [7] -0.029 | [18] 0.263 | [19] 0.013 | [8] -0.208 | [20] -0.078

TK1 (UniProt P04183)
inactive: [1] -0.029 | [2] 0.004 | [9] 0.044 | [3] 0.017 | [4] -0.02 | [10] -0.012 | [11] -0.03 | [5] -0.011 | [12] -0.028 | [13] 0.046 | [14] 0.037 | [15] 0.025 | [6] 0.003 | [16] -0.048 | [17] -0.016 | [7] 0.059 | [18] -0.001 | [19] -0.013 | [20] -0.01

TIMM10B (UniProt Q9Y5J6)
inactive: [1] 0.299 | [2] 0.135 | [9] 0.191 | [3] -0.189 | [4] 0.216 | [10] 0.048 | [11] 0.042 | [5] 0.543 | [12] -0.143 | [13] -0.051 | [15] -0.008 | [6] -0.231 | [16] 0 | [17] -0.07 | [7] -0.197 | [18] -0.126 | [20] 0.089

TIPIN (UniProt Q9BVW5)
inactive: [1] -0.051 | [2] 0.003 | [9] 0.022 | [3] 0.012 | [4] 0.008 | [10] 0.097 | [5] -0.125 | [12] -0.004 | [13] -0.041 | [14] 0.024 | [15] 0.027 | [6] -0.017 | [17] 0.011 | [7] 0.007 | [19] -0.001 | [8] 0.011 | [20] -0.082

TBCD (UniProt Q9BTW9)
inactive: [1] 0.022 | [2] 0.06 | [9] 0.059 | [3] 0.022 | [4] 0.069 | [10] 0.029 | [11] -0.025 | [5] -0.01 | [12] -0.016 | [13] -0.021 | [14] 0.019 | [15] -0.019 | [6] -0.004 | [16] 0.01 | [17] -0.034 | [7] -0.083 | [18] 0.01 | [19] -0.061 | [20] -0.086

TFE3 (UniProt P19532)
inactive: [1] 0.079 | [9] 0.053 | [3] 0.216 | [10] 0.071 | [11] -0.075 | [12] 0.017 | [13] -0.219 | [14] -0.053 | [15] 0.02 | [16] 0 | [17] -0.051 | [7] -0.325 | [18] 0.004 | [19] 0.03 | [20] -0.03

TBC1D17 (UniProt Q9HA65)
inactive: [1] 0.111 | [2] 0.018 | [3] -0.026 | [4] -0.017 | [10] -0.064 | [11] -0.035 | [5] 0.005 | [12] -0.049 | [13] 0.088 | [15] -0.046 | [6] -0.041 | [16] 0.04 | [7] -0.284 | [18] 0.042 | [8] -0.052 | [20] 0.142

2 consecutive records already listed:
TBCD (UniProt Q9BTW9)
inactive: [1] 0.022 | [2] 0.06 | [9] 0.059 | [3] 0.022 | [4] 0.069 | [10] 0.029 | [11] -0.025 | [5] -0.01 | [12] -0.016 | [13] -0.021 | [14] 0.019 | [15] -0.019 | [6] -0.004 | [16] 0.01 | [17] -0.034 | [7] -0.083 | [18] 0.01 | [19] -0.061 | [20] -0.086

TFE3 (UniProt P19532)
inactive: [1] 0.079 | [9] 0.053 | [3] 0.216 | [10] 0.071 | [11] -0.075 | [12] 0.017 | [13] -0.219 | [14] -0.053 | [15] 0.02 | [16] 0 | [17] -0.051 | [7] -0.325 | [18] 0.004 | [19] 0.03 | [20] -0.03

(listing goes on)

TIMM10 (UniProt P62072)
inactive: [1] -0.109 | [2] -0.021 | [9] 0.137 | [3] -0.011 | [4] 0.044 | [10] 0.051 | [11] 0.072 | [5] 0.029 | [12] -0.014 | [13] -0.016 | [14] -0.06 | [15] 0.024 | [6] -0.041 | [16] -0.145 | [17] -0.026 | [7] 0.047 | [18] -0.09 | [19] -0.078 | [20] 0.174

TFR2 (UniProt Q9UP52)
inactive: [1] 0.009 | [2] -0.019 | [9] -0.012 | [3] -0.015 | [4] 0.018 | [10] 0.016 | [11] -0.039 | [5] -0.023 | [12] 0.03 | [13] 0.018 | [14] 0.018 | [15] 0.008 | [6] -0.011 | [16] -0.018 | [17] 0.037 | [7] -0.146 | [18] 0.02 | [19] 0.02 | [20] -0.128

TIMM29 (UniProt Q9BSF4)
inactive: [1] 0.028 | [2] 0.042 | [9] 0.049 | [3] -0.025 | [4] 0.064 | [10] 0.018 | [11] -0.035 | [5] -0.024 | [12] 0.037 | [13] 0.011 | [14] -0.202 | [15] 0.024 | [6] -0.014 | [16] -0.101 | [17] 0.008 | [7] 0.071 | [18] -0.031 | [20] -0.052
active: [19] 0.444

TBCK (UniProt Q8TEA7)
inactive: [1] 0.101 | [2] 0.059 | [3] 0.082 | [4] 0.151 | [5] -0.248 | [12] 0.012 | [13] 0.027 | [14] 0.009 | [6] -0.078 | [7] -0.052 | [19] 0.2 | [8] -0.051 | [20] 0.218

TEX264 (UniProt Q9Y6I9)
active: [3] 0.769
inactive: [1] 0.099 | [2] 0.024 | [9] 0.034 | [4] 0.325 | [10] 0 | [11] 0.203 | [5] 0.349 | [12] 0.033 | [13] 0 | [14] -0.011 | [15] -0.049 | [6] -0.022 | [16] 0 | [17] 0.19 | [7] -0.148 | [18] -0.035 | [19] -0.005 | [20] 0.091

TCOF1 isoform 4 (UniProt Q13428)
inactive: [1] 0.035 | [2] -0.005 | [9] -0.005 | [3] -0.008 | [4] -0.002 | [10] 0.014 | [11] -0.024 | [5] -0.001 | [12] -0.043 | [13] -0.107 | [14] -0.009 | [15] -0.034 | [6] -0.13 | [16] 0.028 | [17] 0.023 | [7] -0.042 | [18] -0.083 | [19] 0.024
active: [20] -0.664

TGM2 (UniProt A2A299)
inactive: [1] -0.128 | [2] -0.09 | [3] -0.281 | [4] -0.131 | [11] -0.083 | [5] -0.027 | [12] -0.17 | [13] -0.189 | [6] 0.162 | [16] 0.095 | [7] 0.048 | [18] 0.051 | [20] -0.014
